# Experimental data published in publication PMC7862700.
# This is one part of the list. The exact form of the protein is not confirmed.
# Target: T1, ETV4 (UniProt P43268)
# T1 sequence: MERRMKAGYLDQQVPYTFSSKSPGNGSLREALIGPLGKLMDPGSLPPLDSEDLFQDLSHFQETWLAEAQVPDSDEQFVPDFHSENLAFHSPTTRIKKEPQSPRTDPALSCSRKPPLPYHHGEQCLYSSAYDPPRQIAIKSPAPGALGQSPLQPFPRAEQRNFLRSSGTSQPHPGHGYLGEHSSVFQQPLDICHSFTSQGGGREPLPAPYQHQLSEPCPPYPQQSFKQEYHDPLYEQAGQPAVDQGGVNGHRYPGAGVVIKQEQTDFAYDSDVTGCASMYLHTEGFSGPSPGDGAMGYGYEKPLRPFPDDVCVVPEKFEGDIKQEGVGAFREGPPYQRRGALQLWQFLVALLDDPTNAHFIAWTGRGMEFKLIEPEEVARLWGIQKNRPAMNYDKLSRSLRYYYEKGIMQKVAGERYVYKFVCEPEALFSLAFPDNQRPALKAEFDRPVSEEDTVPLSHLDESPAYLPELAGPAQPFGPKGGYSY
# Experiment: DAPPL (digital affinity profiling via proximity ligation, sequencing)
# Conditions: 10 mM Tris-HCl pH 7.5, 50 mM NaCl, 1 mM DTT, 4% glycerol, room temperature, 30 min; GST-TFs on glutathione beads, 16-mer random dsDNA library, 0.1% …; high values mean tight binding; double strand, one strand shown; scale: fold enrichment (6-mer frequency, TF over GST control)
row,Sequence,binding signal
1,GTTCAC,1.2
2,AATCTT,1.33
3,ATAACC,1.21
4,TGGGGT,1.03
5,GCCTAC,1.23
6,AAGCAT,1.11
7,GTTGAC,1.25
8,TCTATA,1.16
9,TACAGC,1.12
10,CGTTCT,1.56
11,CCTCGA,1.31
12,GCGTCT,1.06
13,ACACAA,1.15
14,AACCCC,1.12
15,CCTTCG,1.36
16,ACTGAT,1.25
17,ACTGTT,1.08
18,TTCGAG,1.29
19,ATTAAG,1.07
20,TAACGG,1.11

# A different layout for part of the listing above.
row	Sequence	binding signal
18	TTCGAG	1.29
19	ATTAAG	1.07

# Next entries

row,Sequence,binding signal
1,TGTTAC,1.46
2,GAATTA,1.06
3,ATCCGG,2.7
4,TTGGTC,1.07
5,CTCTTA,1.44
6,TACTAT,1.31
7,TAAATC,1.15
8,TACTCC,1.35
9,CTCCCT,1.67
10,CAATAG,1.06
11,TATGGG,1.28
12,CCCTAT,1.34
13,CCGGGT,1.05
14,TTTCAA,1.32
15,ACTTGT,1.32
16,CACATC,1.6
17,TCTATG,1.15
18,GCACCT,1.11
19,TTATCG,1.17
20,CCACGA,1.07
